Reference: publication PMC5645319 (Scientific Reports, 2017)

Assays:
[1] = general procedure: Fmoc solid-phase peptide synthesis; Rink Amide MBHA resin; PyBOP/DIPEA; details: conjugation step
[2] = general procedure: Fmoc solid-phase peptide synthesis; Rink Amide MBHA; PyBOP/DIPEA; details: whole synthesis

“DOTA-Lys(EtNBS)-Lys(PEG-5KDa)-β-Ala-Lys(DBCO-PEG4-cRGD)” showed a conjugation yield ([1]; cyclic, sequence written open) of 50%.
In the case of “DOTA-Lys(EtTNBS)-Lys(NH2)-β-Ala-Lys(DBCO-PEG4-cRGD)-NH2”, the conjugation yield [1] was roughly 99%.
“Dota-Lys(EtNBS)-Lys(NH2)-β-Ala-Lys(N3)NH2” showed an isolated yield [2] of 14.5%.
